Measurements reported in PMC9176654.

Target: NSP13 (SARS-CoV-2) (UniProt P0DTD1)
Experiment: two-hybrid + affinity purification with mass spectrometry

Substance: PDE4DIP (from UniProt Q5VU43 1-2346)
- binding: binds

Results are given in words; binding and its absence hold for the method and conditions named. Binding seen in cells or lysates may run through a third protein. A yes stands for co-enrichment or nearness to the bait. Other partners may have been found.
